Experimental data: PubChem BioAssay AID652243 (Drosophila RNAi Screening Center, 2013)
Screen: 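Fly genes required for human androgen receptor driven transcription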 (primary screen). System: Drosophila S2R+ cells. Reagent: long dsRNA against Drosophila genes. Timing: 72 h (48 h, then 24 h hormone). Treatment: synthetic androgen R1881 at 10 nM for 24 h. Measurement: 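Per-well raw luminescence of the androgen-driven firefly reporter and of the Renilla control, two replicates each, without normalisation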. Direction: firefly reporter light: higher = more light from androgen-responsive reporter; Renilla control light: higher = more constitutive control signal (cell number, transfection). Call rule: 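Across duplicate plates, a knock-down whose log firefly/Renilla ratio shifted a set fold down or up from the GFP/LacZ control mean was a hit; the downward cut appears as both 1.5 and 3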. Calls: active = hit: reporter lowered or raised; inactive = no hit.
In all, the deposit lists about 24,000 reagents; this is an unselected part of those with a known target gene and a result. Over the whole deposit, 246 (1%) were called active. 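Plates not normalised; calls are printed but the firefly/Renilla ratio behind them is not deposited; fold cut for lowering reported inconsistently.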 The raw values are shown without normalisation. Reagents against one gene are numbered here. A plus sign joins genes that one reagent is predicted to hit. Not given: the amount of reagent.

gene knocked down	reagent	firefly reporter light, replicate 1	firefly reporter light, replicate 2	Renilla control light, replicate 1	Renilla control light, replicate 2	activity call
bib	1	7.25e5	7.51e5	2.42e6	1.94e6	inactive
Cbs	1	46807	40006	3.74e5	3.50e5	inactive
CG34248	1	3.70e5	1.47e5	2.48e5	1.12e5	inactive
ND-20L	1	2.37e5	3.06e5	2.21e6	3.85e6	inactive
CG33325	1	96757	1.73e5	1.27e5	1.01e5	inactive
CG7183	1	1.17e5	71943	9.45e5	6.78e5	inactive
CG10979	1	51473	32288	1.02e6	6.78e5	inactive
Or19b + Or19a	1	6.78e5	7.32e5	1.14e6	1.05e6	inactive
Osbp	1	1.08e5	80419	7.66e5	5.15e5	inactive
CG44014 + CG44013	1	2.54e5	2.25e5	2.61e6	2.46e6	inactive
CG44014 + CG44013	2	3.72e5	4.21e5	9.95e5	9.82e5	inactive
CG4483	1	5.86e5	5.59e5	2.99e6	3.54e6	inactive
CG6409	1	5.01e5	4.21e5	4.54e6	3.42e6	inactive
CG6409	2	5.54e5	4.58e5	2.05e6	2.31e6	inactive
CG6409	3	2.28e5	2.28e5	4.75e5	6.52e5	inactive
PPYR1	1	2.51e5	2.28e5	1.99e6	2.40e6	inactive
PPYR1	2	2.15e5	1.93e5	5.31e5	4.70e5	inactive
CG11085	1	4.23e5	4.46e5	3.82e6	3.77e6	inactive
CG11085	2	4.03e5	4.18e5	1.23e6	1.32e6	inactive
CG11085	3	9.10e5	9.25e5	1.44e6	1.64e6	inactive
Rab5	1	1.15e6	8.60e5	3.36e6	1.82e6	inactive
Rab5	2	7.72e5	6.96e5	5.19e5	5.44e5	inactive
daed	1	9.70e5	1.24e6	2.55e6	1.72e6	inactive
CG6220	1	81418	1.07e5	1.50e6	1.50e6	inactive
Acsx3	1	85709	1.22e5	5.32e5	6.19e5	inactive
spag	1	2.64e5	3.29e5	1.35e6	1.81e6	inactive
spag	2					inactive
spag	3					inactive
CG16713	1	1.45e5	1.06e5	1.34e6	9.06e5	inactive
bora	1	30101	11824	5.80e5	3.60e5	inactive
Frmd5	1	90049	90328	1.31e6	1.10e6	active
ppk12	1	2.21e5	2.25e5	1.19e6	1.13e6	inactive
CG34155	1	1.09e6	1.29e6	1.86e6	1.81e6	inactive
CG32305	1	45431	74234	8.97e5	8.36e5	inactive
CG32305	2	6.13e5	4.25e5	1.53e6	1.54e6	inactive
Cpr67Fb	1	1.61e5	1.62e5	1.52e6	1.50e6	inactive
Cpr67Fb	2	5.07e5	2.97e5	1.50e6	1.20e6	inactive
CG15136	1	1.41e5	1.40e5	1.58e6	1.41e6	inactive
mEFTu2	1	9.25e5	5.94e5	2.80e6	2.51e6	inactive
CheB38c	1	2.26e5	2.36e5	1.67e6	2.29e6	inactive
wdb	1	2.53e5	1.54e5	2.40e6	2.64e6	inactive
wdb	2					inactive
wdb	3					inactive
Ugt37C1	1	63632	98822	8.87e5	8.87e5	inactive
Ugt37C1	2	6.07e5	4.35e5	1.94e6	6.38e5	inactive
BBS4	1	4.10e5	4.01e5	2.55e6	3.53e6	inactive
BBS4	2	5.41e5	5.41e5	8.57e5	9.81e5	inactive
Ssadh	1	1.01e5	69336	7.70e5	7.23e5	inactive
Ssadh	2	7.36e5	5.91e5	9.40e5	9.78e5	inactive
CG14191	1	5.39e5	3.79e5	7.49e5	3.90e5	inactive
CG14191	2	1.12e6	1.12e6	1.10e6	8.51e5	inactive
CG10809	1	2.93e5	2.00e5	2.74e6	2.34e6	inactive
CG10809	2	3.11e5	2.43e5	1.69e6	9.52e5	active
CG16989	1	1.57e5	2.14e5	2.98e6	2.86e6	inactive
CG16989	2	5.95e5	7.86e5	1.07e6	1.07e6	inactive
ND-PDSW	1	1.05e6	1.17e6	1.33e6	1.37e6	inactive
CG5726	1	3.13e5	3.38e5	1.40e6	1.24e6	inactive
CG5726	2	6.28e5	6.96e5	7.81e5	8.87e5	inactive
